Results deposited as PubChem BioAssay AID1508597 (Cure First, 2020)

Purpose: 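Knock-downs altering ovarian cancer cell survival with or without PARP inhibitor rucaparib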 (primary screen)
Cells: human ovarian carcinoma lines grown from tumours: OCI-P5x (papillary serous) and OCI-C5x (clear cell)
Reagent: siRNA pool against human genes, 1.25 pmol siRNA per well
Timing: 72 h or 96 h, depending on the cell culture
Conditions: rucaparib 20 µM (about IC30) or vehicle, present until read-out
Read-out: 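ATP luminescence measured at 72 or 96 h according to the culture, then normalised and expressed as percent viability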
Direction: viability, normalised: higher = more viable cells remaining
Hit rule: 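a well counts as a hit if its normalised viability is under 80 percent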
Meaning of the calls: active = viability under 80%; inactive = viability 80% or more
Shown is one part, drawn at random, of about 2,100 reagents tested. 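Calls flag viability under 80% in either arm, not effects specific to rucaparib; the reference for percent is not stated.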 A reagent listed more than once was tested more than once; the source does not tell the runs apart. Not given: the 100% reference.

gene | rucaparib or vehicle | cell line | technical replicate | viability, normalised (%) | Call
SETD1A (SET domain containing 1A, histone lysine methyltransferase) | Rucaparib | OCI-C5x (clear cell) | 1 | 42.8 | active
SETD1A (SET domain containing 1A, histone lysine methyltransferase) | Rucaparib | OCI-C5x (clear cell) | 2 | 49.6 | active
SETD1A (SET domain containing 1A, histone lysine methyltransferase) | Rucaparib | OCI-C5x (clear cell) | 3 | 45.3 | active
SETD1A (SET domain containing 1A, histone lysine methyltransferase) | Rucaparib | OCI-P5x (serous) | 1 | 50.3 | active
SETD1A (SET domain containing 1A, histone lysine methyltransferase) | Rucaparib | OCI-P5x (serous) | 2 | 53.3 | active
SETD1A (SET domain containing 1A, histone lysine methyltransferase) | Rucaparib | OCI-P5x (serous) | 3 | 46.1 | active
SETD1A (SET domain containing 1A, histone lysine methyltransferase) | Vehicle | OCI-C5x (clear cell) | 1 | 42.7 | active
SETD1A (SET domain containing 1A, histone lysine methyltransferase) | Vehicle | OCI-C5x (clear cell) | 2 | 37.6 | active
SETD1A (SET domain containing 1A, histone lysine methyltransferase) | Vehicle | OCI-C5x (clear cell) | 3 | 49.9 | active
SETD1A (SET domain containing 1A, histone lysine methyltransferase) | Vehicle | OCI-P5x (serous) | 1 | 59.3 | active
SETD1A (SET domain containing 1A, histone lysine methyltransferase) | Vehicle | OCI-P5x (serous) | 2 | 59.2 | active
SETD1A (SET domain containing 1A, histone lysine methyltransferase) | Vehicle | OCI-P5x (serous) | 3 | 94.5 | inactive
PRKN (parkin RBR E3 ubiquitin protein ligase) | Rucaparib | OCI-C5x (clear cell) | 1 | 48.6 | active
PRKN (parkin RBR E3 ubiquitin protein ligase) | Rucaparib | OCI-C5x (clear cell) | 2 | 52.4 | active
PRKN (parkin RBR E3 ubiquitin protein ligase) | Rucaparib | OCI-C5x (clear cell) | 3 | 47.1 | active
PRKN (parkin RBR E3 ubiquitin protein ligase) | Rucaparib | OCI-P5x (serous) | 1 | 77.9 | active
PRKN (parkin RBR E3 ubiquitin protein ligase) | Rucaparib | OCI-P5x (serous) | 2 | 68.2 | active
PRKN (parkin RBR E3 ubiquitin protein ligase) | Rucaparib | OCI-P5x (serous) | 3 | 66.1 | active
PRKN (parkin RBR E3 ubiquitin protein ligase) | Vehicle | OCI-C5x (clear cell) | 1 | 42.1 | active
PRKN (parkin RBR E3 ubiquitin protein ligase) | Vehicle | OCI-C5x (clear cell) | 2 | 31.6 | active
PRKN (parkin RBR E3 ubiquitin protein ligase) | Vehicle | OCI-C5x (clear cell) | 3 | 46.7 | active
PRKN (parkin RBR E3 ubiquitin protein ligase) | Vehicle | OCI-P5x (serous) | 1 | 53.8 | active
PRKN (parkin RBR E3 ubiquitin protein ligase) | Vehicle | OCI-P5x (serous) | 2 | 79.8 | active
PRKN (parkin RBR E3 ubiquitin protein ligase) | Vehicle | OCI-P5x (serous) | 3 | 53 | active

3 consecutive entries already listed, for reference:
gene | rucaparib or vehicle | cell line | technical replicate | viability, normalised (%) | Call
PRKN (parkin RBR E3 ubiquitin protein ligase) | Rucaparib | OCI-P5x (serous) | 2 | 68.2 | active
PRKN (parkin RBR E3 ubiquitin protein ligase) | Rucaparib | OCI-P5x (serous) | 3 | 66.1 | active
PRKN (parkin RBR E3 ubiquitin protein ligase) | Vehicle | OCI-C5x (clear cell) | 1 | 42.1 | active

The listing continues:
gene | rucaparib or vehicle | cell line | technical replicate | viability, normalised (%) | Call
TAF1 (TATA-box binding protein associated factor 1) | Rucaparib | OCI-C5x (clear cell) | 1 | 49.8 | active
TAF1 (TATA-box binding protein associated factor 1) | Rucaparib | OCI-C5x (clear cell) | 1 | 40.4 | active
TAF1 (TATA-box binding protein associated factor 1) | Rucaparib | OCI-C5x (clear cell) | 2 | 50.9 | active
TAF1 (TATA-box binding protein associated factor 1) | Rucaparib | OCI-C5x (clear cell) | 2 | 53.8 | active
TAF1 (TATA-box binding protein associated factor 1) | Rucaparib | OCI-C5x (clear cell) | 3 | 39.2 | active
TAF1 (TATA-box binding protein associated factor 1) | Rucaparib | OCI-C5x (clear cell) | 3 | 36.9 | active
TAF1 (TATA-box binding protein associated factor 1) | Rucaparib | OCI-P5x (serous) | 1 | 87.6 | inactive
TAF1 (TATA-box binding protein associated factor 1) | Rucaparib | OCI-P5x (serous) | 1 | 56.3 | active
TAF1 (TATA-box binding protein associated factor 1) | Rucaparib | OCI-P5x (serous) | 2 | 84.9 | inactive
TAF1 (TATA-box binding protein associated factor 1) | Rucaparib | OCI-P5x (serous) | 2 | 74.2 | active
TAF1 (TATA-box binding protein associated factor 1) | Rucaparib | OCI-P5x (serous) | 3 | 81.9 | inactive
TAF1 (TATA-box binding protein associated factor 1) | Rucaparib | OCI-P5x (serous) | 3 | 66 | active
TAF1 (TATA-box binding protein associated factor 1) | Vehicle | OCI-C5x (clear cell) | 1 | 40.3 | active
TAF1 (TATA-box binding protein associated factor 1) | Vehicle | OCI-C5x (clear cell) | 1 | 61.8 | active
TAF1 (TATA-box binding protein associated factor 1) | Vehicle | OCI-C5x (clear cell) | 2 | 54 | active
TAF1 (TATA-box binding protein associated factor 1) | Vehicle | OCI-C5x (clear cell) | 2 | 58.2 | active
TAF1 (TATA-box binding protein associated factor 1) | Vehicle | OCI-C5x (clear cell) | 3 | 49 | active
TAF1 (TATA-box binding protein associated factor 1) | Vehicle | OCI-C5x (clear cell) | 3 | 39.1 | active
TAF1 (TATA-box binding protein associated factor 1) | Vehicle | OCI-P5x (serous) | 1 | 80.1 | inactive
TAF1 (TATA-box binding protein associated factor 1) | Vehicle | OCI-P5x (serous) | 1 | 77.7 | active
TAF1 (TATA-box binding protein associated factor 1) | Vehicle | OCI-P5x (serous) | 2 | 86.1 | inactive
TAF1 (TATA-box binding protein associated factor 1) | Vehicle | OCI-P5x (serous) | 2 | 71.2 | active
TAF1 (TATA-box binding protein associated factor 1) | Vehicle | OCI-P5x (serous) | 3 | 95.1 | inactive
TAF1 (TATA-box binding protein associated factor 1) | Vehicle | OCI-P5x (serous) | 3 | 51.4 | active
DRD3 (dopamine receptor D3) | Rucaparib | OCI-C5x (clear cell) | 1 | 32 | active
DRD3 (dopamine receptor D3) | Rucaparib | OCI-C5x (clear cell) | 2 | 24.1 | active
DRD3 (dopamine receptor D3) | Rucaparib | OCI-C5x (clear cell) | 3 | 34.1 | active
DRD3 (dopamine receptor D3) | Rucaparib | OCI-P5x (serous) | 1 | 44.9 | active
DRD3 (dopamine receptor D3) | Rucaparib | OCI-P5x (serous) | 2 | 42.8 | active
DRD3 (dopamine receptor D3) | Rucaparib | OCI-P5x (serous) | 3 | 47.2 | active
DRD3 (dopamine receptor D3) | Vehicle | OCI-C5x (clear cell) | 1 | 49 | active
DRD3 (dopamine receptor D3) | Vehicle | OCI-C5x (clear cell) | 2 | 34.8 | active
DRD3 (dopamine receptor D3) | Vehicle | OCI-C5x (clear cell) | 3 | 47.5 | active
DRD3 (dopamine receptor D3) | Vehicle | OCI-P5x (serous) | 1 | 42.5 | active
DRD3 (dopamine receptor D3) | Vehicle | OCI-P5x (serous) | 2 | 51.9 | active
DRD3 (dopamine receptor D3) | Vehicle | OCI-P5x (serous) | 3 | 44.9 | active
